{
  "source": "the supplement of paper PMC12889115",
  "tested_on": "Salmonella enterica serovar Typhimurium SL1344",
  "experiment": "bacterial growth OD600 after 18 h with compound and polymyxin B; higher = more bacterial growth (less inhibition)",
  "details": "50 µM, Mueller-Hinton broth",
  "note": "The other results are listed elsewhere or left out. Values are raw readings; no control value is given beside them.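 Primary screen: polymyxin B was added at a level permeabilizing Salmonella outer membranes while sparing inner membranes. DMSO wells, both with and without polymyxin B, established maximum growth. Plate-to-plate variation meant each plate was ranked on its own, and the lowest-OD600 compounds were selected as hits.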",
  "data": [
    {"smiles": "COc1ccc2c(C)nc(N3CCCC(C(=O)N4CCC(C(O)c5ccccc5)CC4)C3)nc2c1", "note": "(stereo not given)", "values": [
      {"measurement": "bacterial growth OD600", "setting": "polymyxin B 0.75 µg/mL", "result": 0.003}
    ]},
    {"smiles": "OCCC1CN(Cc2cccc(O)c2)CCN1Cc1ccccc1F", "note": "(stereo not given)", "values": [
      {"measurement": "bacterial growth OD600", "setting": "polymyxin B 1 µg/mL", "result": 0.938}
    ]},
    {"smiles": "CCOC(=O)C1(CCCc2ccccc2)CCCN(C(=O)CCn2cccn2)C1", "note": "(stereo not given)", "values": [
      {"measurement": "bacterial growth OD600", "setting": "polymyxin B 1 µg/mL", "result": 0.917}
    ]},
    {"smiles": "CCN(CC)CCN(C)C(=O)c1ccc(OC)c(OC2CCN(C(C)C)CC2)c1", "values": [
      {"measurement": "bacterial growth OD600", "setting": "polymyxin B 1 µg/mL", "result": 1.16}
    ]},
    {"smiles": "COCC(=O)Nc1cc(C(=O)N2CCN(C)C(c3ccccc3)C2)cc2nc(-c3cccnc3)n(C)c12", "note": "(stereo not given)", "values": [
      {"measurement": "bacterial growth OD600", "setting": "polymyxin B 0.75 µg/mL", "result": 0.896}
    ]},
    {"smiles": "COc1ccc(CN2C(=O)O[C@@H]3CN(C4CCCC4)C[C@@H]32)cc1OC", "values": [
      {"measurement": "bacterial growth OD600", "setting": "polymyxin B 1 µg/mL", "result": 1.04}
    ]},
    {"smiles": "O=C(Nc1ccc(N2CCC(NC(c3ccncc3)c3ccc(Cl)cc3)CC2)cc1)C1CCCC1", "note": "(stereo not given)", "values": [
      {"measurement": "bacterial growth OD600", "setting": "polymyxin B 0.75 µg/mL", "result": 0.007}
    ]},
    {"smiles": "COc1ccc(C(=O)N2CCC3(CC2)c2ccccc2[C@@H](NC(=O)c2ccncc2)[C@@H]3OC)cc1F", "values": [
      {"measurement": "bacterial growth OD600", "setting": "polymyxin B 0.75 µg/mL", "result": 0.843}
    ]},
    {"smiles": "O=C(COc1ccc(Cl)cc1)N1CCC(n2c(C3CCCO3)nc3cc(C(F)(F)F)ccc32)CC1", "note": "(stereo not given)", "values": [
      {"measurement": "bacterial growth OD600", "setting": "polymyxin B 0.75 µg/mL", "result": 0.723}
    ]},
    {"smiles": "CCN(Cc1ccc(COC)o1)CC1CCCN(CCc2cccc(OC)c2)C1", "note": "(stereo not given)", "values": [
      {"measurement": "bacterial growth OD600", "setting": "polymyxin B 0.75 µg/mL", "result": 0.999}
    ]},
    {"smiles": "O=C(NCc1sc2ccccc2c1Cl)C1CCC(=O)N(C2CC2)C1", "note": "(stereo not given)", "values": [
      {"measurement": "bacterial growth OD600", "setting": "polymyxin B 1 µg/mL", "result": 1.05}
    ]},
    {"smiles": "CSc1ccc(CN2CCC(n3nccc3NC(=O)C(C)(C)C)CC2)cc1", "values": [
      {"measurement": "bacterial growth OD600", "setting": "polymyxin B 0.75 µg/mL", "result": 0.818}
    ]},
    {"smiles": "COc1cc(CN2Cc3cc(Cl)ccc3OC(C)C2)cc2c1OCO2", "note": "(stereo not given)", "values": [
      {"measurement": "bacterial growth OD600", "setting": "polymyxin B 0.75 µg/mL", "result": 0}
    ]},
    {"smiles": "COc1cc(CNC2CCN(C)CC2)ccc1OCC(O)CN(C)C(C)C", "note": "(stereo not given)", "values": [
      {"measurement": "bacterial growth OD600", "setting": "polymyxin B 1 µg/mL", "result": 1.33}
    ]},
    {"smiles": "O=C(NC1CC(=O)N(Cc2ccccc2Cl)C1)c1cc2ccccc2o1", "note": "(stereo not given)", "values": [
      {"measurement": "bacterial growth OD600", "setting": "polymyxin B 1 µg/mL", "result": 0.793}
    ]},
    {"smiles": "C=CCCC(=O)N1CCCC(N2CCN(c3cccc(C(F)(F)F)c3)CC2)C1", "note": "(stereo not given)", "values": [
      {"measurement": "bacterial growth OD600", "setting": "polymyxin B 1 µg/mL", "result": 0.902}
    ]},
    {"smiles": "O=C(c1ccc[n+]([O-])c1)N1CCC2(CCCN(CC3CCCCC3)C2)C1", "note": "(stereo not given)", "values": [
      {"measurement": "bacterial growth OD600", "setting": "polymyxin B 0.75 µg/mL", "result": 0.863}
    ]},
    {"smiles": "Cc1ncoc1C(=O)N1CCC(CCC(=O)NC2CCN(Cc3ccccc3)C2)CC1", "note": "(stereo not given)", "values": [
      {"measurement": "bacterial growth OD600", "setting": "polymyxin B 1 µg/mL", "result": 0.942}
    ]},
    {"smiles": "Cc1ccc2c(CC(=O)NCCN3Cc4ccccc4OC(c4ccsc4)C3)cc(=O)oc2c1", "note": "(stereo not given)", "values": [
      {"measurement": "bacterial growth OD600", "setting": "polymyxin B 0.75 µg/mL", "result": 0.737}
    ]},
    {"smiles": "COc1ccc(OC)c(C2CCN(c3nncc(-c4cc(C)oc4C)n3)C2)c1", "note": "(stereo not given)", "values": [
      {"measurement": "bacterial growth OD600", "setting": "polymyxin B 0.75 µg/mL", "result": 0.914}
    ]},
    {"smiles": "O=C(c1csnn1)N1CCc2[nH]nc(-c3ccc(Cl)cc3)c2C1", "values": [
      {"measurement": "bacterial growth OD600", "setting": "polymyxin B 0.75 µg/mL", "result": 0}
    ]},
    {"smiles": "COCCN(C)Cc1cn(-c2ccccc2)nc1-c1cccc(OC)c1", "values": [
      {"measurement": "bacterial growth OD600", "setting": "polymyxin B 1 µg/mL", "result": 0.831}
    ]},
    {"smiles": "COC(=O)C1CCCCN1Cc1ccc2c(c1)CN(C(=O)c1ccc3[nH]ccc3c1)CCO2", "note": "(stereo not given)", "values": [
      {"measurement": "bacterial growth OD600", "setting": "polymyxin B 0.75 µg/mL", "result": 0.823}
    ]},
    {"smiles": "COc1ccc(CN2C(=O)O[C@@H]3CN(Cc4cccc(F)c4)C[C@@H]32)cc1OC", "values": [
      {"measurement": "bacterial growth OD600", "setting": "polymyxin B 0.75 µg/mL", "result": 0.777}
    ]},
    {"smiles": "COC(=O)CCCNC(=O)c1ccccc1OC1CCN(C(=O)c2cccnc2)CC1", "values": [
      {"measurement": "bacterial growth OD600", "setting": "polymyxin B 1 µg/mL", "result": 1.08}
    ]},
    {"smiles": "CN(Cc1ccccn1)C(=O)c1csc2nc(-c3cccc(C(F)(F)F)c3)cn12", "values": [
      {"measurement": "bacterial growth OD600", "setting": "polymyxin B 0.75 µg/mL", "result": 0.624}
    ]},
    {"smiles": "O=C(CCc1ccccc1)Nc1ccc(N2CCC(NCC3CCCN(c4ncccn4)C3)CC2)cc1", "note": "(stereo not given)", "values": [
      {"measurement": "bacterial growth OD600", "setting": "polymyxin B 0.75 µg/mL", "result": 0.791}
    ]},
    {"smiles": "CN(C)c1ccc([C@@H]2C[C@H]3CN(CCc4ccccc4)C(=O)[C@]34CCCN24)cc1", "values": [
      {"measurement": "bacterial growth OD600", "setting": "polymyxin B 1 µg/mL", "result": 1.11}
    ]},
    {"smiles": "COC(=O)C1CCN(C(=O)c2csc3nc(-c4ccccc4C)cn23)CC1", "values": [
      {"measurement": "bacterial growth OD600", "setting": "polymyxin B 1 µg/mL", "result": 1.1}
    ]},
    {"smiles": "COCC1CCCN(Cc2ccc3c(c2)CN(C(=O)c2cccc(-c4ccc(F)cc4)c2)CCO3)C1", "note": "(stereo not given)", "values": [
      {"measurement": "bacterial growth OD600", "setting": "polymyxin B 0.75 µg/mL", "result": 0.007}
    ]}
  ]
}
